Reference: US20060286139A1, “Polymeric drug release system for medical devices” (priority 2003, published 2006)
At least one structure is not confirmed: it was looked up by name or label, or the drawing left a doubt.

Experiment: Drug elution from dual-coated stents (17β-estradiol in PEP94 bottom layer, dexamethasone in PEP90 top layer) into aqueous release medium, HPLC analysis
Format: physicochemical
Conditions: for Percentage Released: top layer PEP90, aqueous release medium 37° C.; for Total Microgrammes Released: top layer PEP90, loading approx 57 μg, aqueous release medium 37° C.
Protocol: This example describes the preparation and elution of stents comprising 17β-estradiol and dexamethasone each contained within a specific ratio of PVB/PnVPA
A coating solution was prepared made up of PEP94 and 17β-estradiol in a blend of chloroform and acetone (80:20 by weight), so that in terms of total solids 25% was 17β-estradiol, 75% polymer.
A second coating solution was prepared made of PEP 90 and dexamethasone in a mixture of chloroform and acetone (80:20 by weight), so that in terms of total solids 25% was dexamethasone, 75% polymer.
The stents were weighed, spray coated in a ratio of 3:1 (estradiol: dexamethasone) with the respective formulations such that the bottom layer comprised PEP94 with 17β-estradiol and the top layer PEP90 with dexamethasone. The stents were then dried overnight at 40° C. under vacuum.
Upon weighing the average coating weight of the stents was 811 μg yielding drug loadings of approx 147 μg±17 μg for 17β-estradiol and 57 μg±16 μg for dexamethasone.
Each stent was placed on a hook and suspended in a vial containing 8 ml of an aqueous release medium with a 5 mm magnetic flea. The vials were placed on a multipoint stirrer set at 1000 rpm and incubated at 37° C. After a given time interval (ranging from 1 hour to several days), the stents were transferred to fresh aliquots of release medium and replaced on the stirrer to resume agitation. The solution containing dexamethasone/17β-estradiol was set aside for analysis.
Analysis of the samples was carried out using HPLC (Agilent 1100 series).

C[C@@H]1C[C@H]2[C@@H]3CCC4=CC(=O)C=C[C@]4(C)[C@@]3(F)[C@@H](O)C[C@]2(C)[C@@]1(O)C(=O)CO [Dexamethasone]
Percentage Released (time 1 hour): 49.1% | Percentage Released (time 7 hours): 75.3% | Percentage Released (time 24 hours): 94.3% | Total Microgrammes Released (time 1 hour): 28 µg | Total Microgrammes Released (time 7 hours): 42.9 µg | Total Microgrammes Released (time 24 hours): 53.8 µg
